We go through one molecule from patent US20040006018A1.

The target of the experiment is T1, OSM specific receptor (oncostatin M receptor) on human WI-26 VA4 cells (human) (UniProt Q99650).
T1 sequence (looked up): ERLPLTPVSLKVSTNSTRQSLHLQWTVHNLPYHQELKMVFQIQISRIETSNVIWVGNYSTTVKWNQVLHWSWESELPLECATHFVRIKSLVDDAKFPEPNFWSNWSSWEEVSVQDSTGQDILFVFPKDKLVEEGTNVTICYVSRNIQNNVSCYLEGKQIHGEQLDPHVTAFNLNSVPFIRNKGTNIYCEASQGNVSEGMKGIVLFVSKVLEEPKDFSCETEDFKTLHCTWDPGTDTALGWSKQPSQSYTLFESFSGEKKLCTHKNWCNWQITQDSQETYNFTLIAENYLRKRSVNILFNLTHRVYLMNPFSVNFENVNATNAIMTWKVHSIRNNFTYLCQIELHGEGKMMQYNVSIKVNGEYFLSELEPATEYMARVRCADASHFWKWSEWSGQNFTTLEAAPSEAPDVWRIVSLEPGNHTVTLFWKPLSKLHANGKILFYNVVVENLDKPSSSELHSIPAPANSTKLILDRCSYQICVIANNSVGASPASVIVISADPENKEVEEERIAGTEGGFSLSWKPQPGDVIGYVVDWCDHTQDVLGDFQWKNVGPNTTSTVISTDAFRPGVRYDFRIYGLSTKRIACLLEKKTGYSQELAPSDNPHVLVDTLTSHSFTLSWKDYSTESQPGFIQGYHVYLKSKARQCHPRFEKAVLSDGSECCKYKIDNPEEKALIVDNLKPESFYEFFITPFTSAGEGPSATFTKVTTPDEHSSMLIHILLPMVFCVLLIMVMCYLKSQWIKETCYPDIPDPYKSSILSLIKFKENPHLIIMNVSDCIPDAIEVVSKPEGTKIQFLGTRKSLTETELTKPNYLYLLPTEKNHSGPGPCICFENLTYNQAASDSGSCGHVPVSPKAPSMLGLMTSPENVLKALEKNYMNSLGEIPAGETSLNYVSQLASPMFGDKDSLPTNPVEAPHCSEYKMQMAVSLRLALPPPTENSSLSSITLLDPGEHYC
The experiment is described as follows: 125I-human OSM binding to WI-26 VA4 cells.

No constants are given. Whether binding was seen depends on the method and setting. Some binding calls cover weakened binding; strength is not graded here.

B1: Human OSM (oncostatin M) (ligand, UniProt P13725 26-221, looked up)
chain: AAIGSCSKEYRVLLGQLQKQTDLMQDTSRLLDPYIRIQGLDVPKLREHCRERPGAFPSEETLRGLGRRGFLQTLNATLGCVLHRLADLEQRLPKAQDLERSGLNIEDLEKLQMARPNILGLRNNIYCMAQLLDNSDTAEPTKAGRGASQPPTPTPASDAFQRKLEGCRFLHGYHRFMHSVGRVFSKWGESPNRSRR
modifications: 125I-iodinated (labeled ligand)
B1: the binding entry was “binds”.
